This assay addresses chimeric CaR/mGluR5d receptor (Homo sapiens, UniProt P41594). Briefly: CaR/mGluR5d Screening Assay (FLIPR, intracellular calcium). As to conditions: HEK 293 cells expressing the chimeric CaR/mGluR5d receptor, Fluo-3 fluorescence; read-out: IC50 value in relation to CaR/mGluR5d. It is filed as cell-based. On the procedure: HEK 293 cells expressing the chimeric CaR/mGluR5d receptor (clonal cell line hCaR/hmGluR5d_hek6) are plated 24 hours prior to assay at a density of 100,000 cells per well in Collagen I-coated 96-well black, clear bottom plates (Becton Dickenson) in DMEM supplemented with 10% FBS (Hyclone).
On the day of the assay, tissue culture medium is aspirated from the wells of a plate and 80 µL of Assay Buffer (Assay Buffer is: 20 mM HEPES, 146 mM NaCl, 5 mM KCl, 1 mM MgCl2, 1 mM CaCl2, 1 mg/ml BSA, 1 mg/ml glucose, pH 7.4) supplemented with 6 µM of the Ca^2+-sensitive dye, Fluo-3 AM (Molecular Probes) and 0.025% Pluronic (Molecular Probes) is added to each well. The plate is then incubated in the dark for 1 hour at room temperature to efficiently load the cells with Fluo-3. At the end of the incubation, extracellular Fluo-3 is removed by washing the plate with Assay buffer. Assay Buffer is added back to each well (final volume = 160 µL) prior to beginning the assay.
The plate is loaded into a FLIPR robotic device (Molecular Devices) with the laser setting at 0.8 Watts. […] Relative fluorescence intensity (excitation λ = 488 nm / emission λ = 510 nM) is monitored at relevant time intervals throughout the assay period to measure receptor activation and/or inhibition.

Chains of the proteins cited; added tags and fusions are not shown. Residues count along the entry.
UniProt P41594, 580-876, stated change not applied: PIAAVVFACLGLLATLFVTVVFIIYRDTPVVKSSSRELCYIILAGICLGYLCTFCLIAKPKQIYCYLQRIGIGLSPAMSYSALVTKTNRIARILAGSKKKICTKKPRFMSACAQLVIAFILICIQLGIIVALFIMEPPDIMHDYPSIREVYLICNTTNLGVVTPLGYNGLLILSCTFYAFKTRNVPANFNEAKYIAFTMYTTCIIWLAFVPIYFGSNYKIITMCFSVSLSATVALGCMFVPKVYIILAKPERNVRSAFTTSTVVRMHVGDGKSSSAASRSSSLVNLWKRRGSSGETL

`N#Cc1cccc(-c2nc(-c3ccccn3)no2)c1` [B21, 3-(2-Pyridyl)-5-(3-cyanophenyl)-1,2,4-oxadiazole]: the IC50 is 43 nM.

The values above are taken from EP1210344B1, “HETEROPOLYCYCLIC COMPOUNDS AND THEIR USE AS METABOTROPIC GLUTAMATE RECEPTOR ANTAGONISTS” (NPS PHARMACEUTICALS, INC., priority 1999, dated 2001).
